Measured values from paper PMC10009750 (Journal of Medicinal Chemistry, 2023).

Assay: general procedure: Fmoc solid-phase peptide synthesis; PEGA1900
Conditions: whole synthesis, UHPLC (crude); HPLC (vendor peptides)

| Substance | crude HPLC purity [%] |
| --- | --- |
| Y(NO2)TESESRGK(Abz)JYYKKG | ≥ 77 |
| Y(NO2)TESESRGAIYK(Abz)KKG | ≥ 78 |
| Y(NO2)TESESRGAIYJKK(Abz)G | ≥ 88 |
| Y(NO2)TESESRGK(Abz)IYYKKG | ≥ 81 |
| Y(NO2)TEGESRGAIYK(Abz)KKG | ≥ 76 |
| Y(NO2)XESESRGK(Abz)IYYKKG | ≥ 65 |
| Y(NO2)TESESRGZIYK(Abz)KKG | ≥ 75 |
| Y(NO2)TESESRGAIYLKK(Abz)G | ≥ 91 |
| Y(NO2)TEGESRGAIYYKK(Abz)G | ≥ 82 |
| Y(NO2)TGTESESRGK(Abz)IYYKKG | ≥ 72 |
| Y(NO2)TESESRGAIYYKK(Abz)G | ≥ 78 |
| KY(NO2)TESESRGK(Abz)IYYKKG | ≥ 76 |
| Y(NO2)PESESRGAIYK(Abz)KKG | ≥ 72 |
| Y(NO2)PESESRGAIYYKK(Abz)G | ≥ 66 |
| Y(NO2)PESESRGK(Abz)IYYKKG | ≥ 64 |
| Y(NO2)TEGESRGK(Abz)IYYKKG | ≥ 71 |
| Y(NO2)TESESRGAIYK(Abz)BKG | ≥ 80 |
